# The list does not hold the whole screen: its compounds were picked by chemical class. Not every dose and run of a compound is shown. T/C gives the treated animals as a percentage of the vehicle group. For survival time, this PubChem deposit counts one and a half times the control or more as active, and values a quarter to a half above the control carry no call in these data; other NCI protocols may use other cut-offs. Some T/C values are marked as having no survivor count here; that says nothing about deaths at the dose. Schedules are NCI's codes, read here as Q, the interval in days (D) or hours (H), X, the number of doses. Some doses were run more than once; their values stand side by side, smallest first. Some schedules carry Z or #; the key to these is not given.
# System: L1210 leukemia ip in BDF1 mice, survival T/C
# Assay: NCI In Vivo Anticancer Drug Screen. Data for tumor model L1210 Leukemia (intraperitoneal) in B6D2F1 (BDF1) mice
# Details: T/C endpoint: mean survival time, higher T/C = longer survival
# [1] = dose: 100.0 mg/kg/injection, schedule: Q04DX002 (ip), vehicle: saline with Tween-80
# [2] = dose: 200.0 mg/kg/injection, schedule: Q04DX002 (ip), vehicle: saline with Tween-80
# [3] = dose: 12.5 mg/kg/injection, schedule: Q01DX009 (ip), vehicle: saline
# [4] = dose: 25.0 mg/kg/injection, schedule: Q04DX003 (ip), vehicle: saline
# [5] = dose: 50.0 mg/kg/injection, schedule: Q04DX003 (ip), vehicle: saline
compound,measurement,setting,value
O=C(SC1CN2CCC1CC2)C(O)(c1ccccc1)c1ccccc1 (configuration not stated),T/C,"dose: 50.0 mg/kg/injection, schedule: Q04DX002 (ip), vehicle: saline with Tween-80",105 % of control [survivor count not shown]
same,T/C,[1],94 % of control [survivor count not shown]
same,T/C,[2],88 % of control [survivor count not shown]
FCCNCCCl,T/C,"dose: 2.5 mg/kg/injection, schedule: Q01DX Z (ip), vehicle: saline",104 % of control [survivor count not shown]
same,T/C,"dose: 5.0 mg/kg/injection, schedule: Q01DX Z (ip), vehicle: saline",102 % of control [survivor count not shown]
same,T/C,"dose: 6.25 mg/kg/injection, schedule: Q01DX009 (ip), vehicle: saline",119 % of control [survivor count not shown]
same,T/C,"dose: 10.0 mg/kg/injection, schedule: Q01DX Z (ip), vehicle: saline",112 % of control [survivor count not shown]
same,T/C,[3],111 % of control [survivor count not shown]
same,T/C,"dose: 12.5 mg/kg/injection, schedule: Q04DX003 (ip), vehicle: saline",114 % of control [survivor count not shown]
same,T/C,[4],117 % of control [survivor count not shown]
CN(C)CC1CCCCCC1OC(=O)C(O)(c1ccccc1)c1ccccc1 (configuration not stated),T/C,"dose: 10.0 mg/kg/injection, schedule: Q01DX001 (ip), vehicle: other",96 % of control [survivor count not shown]
same,T/C,"dose: 19.0 mg/kg/injection, schedule: Q01DX001 (ip), vehicle: other",98 % of control [survivor count not shown]
same,T/C,"dose: 38.0 mg/kg/injection, schedule: Q01DX001 (ip), vehicle: other",105 % of control [survivor count not shown]
CN1CCC(OC(=O)C(O)(C#Cc2ccccc2)c2ccccc2)CC1 (configuration not stated),T/C,"dose: 100.0 mg/kg/injection, schedule: Q04DX003 (ip), vehicle: gum acacia",99 % of control [survivor count not shown]
same,T/C,"dose: 200.0 mg/kg/injection, schedule: Q04DX003 (ip), vehicle: gum acacia",94 % of control [survivor count not shown]
same,T/C,"dose: 400.0 mg/kg/injection, schedule: Q04DX003 (ip), vehicle: gum acacia",97 % of control [survivor count not shown]
O=C(OC1CCN(Cc2ccccc2)CC1)C(O)(c1ccccc1)c1ccccc1,T/C,[1],102 % of control [survivor count not shown]
same,T/C,[2],91 % of control [survivor count not shown]
same,T/C,"dose: 400.0 mg/kg/injection, schedule: Q04DX002 (ip), vehicle: saline with Tween-80",97 % of control [survivor count not shown]
CN1CCN(NCCN2CCCC(OC(=O)C(O)(c3ccccc3)c3ccccc3)C2)CC1 (configuration not stated),T/C,[3],100 % of control [survivor count not shown]
same,T/C,"dose: 25.0 mg/kg/injection, schedule: Q01DX009 (ip), vehicle: saline",89 [survivor count not shown] and 108 % of control [survivor count not shown]
same,T/C,[4],103 % of control [survivor count not shown]
same,T/C,"dose: 50.0 mg/kg/injection, schedule: Q01DX009 (ip), vehicle: saline",87 [survivor count not shown] and 95 % of control [survivor count not shown]
same,T/C,[5],100 % of control [survivor count not shown]
same,T/C,"dose: 100.0 mg/kg/injection, schedule: Q01DX009 (ip), vehicle: saline",86 [survivor count not shown] and 91 % of control [survivor count not shown]
same,T/C,"dose: 100.0 mg/kg/injection, schedule: Q04DX003 (ip), vehicle: saline",100 % of control [survivor count not shown]
same,T/C,"dose: 200.0 mg/kg/injection, schedule: Q01DX009 (ip), vehicle: saline",93 [survivor count not shown] and 102 % of control [survivor count not shown]
same,T/C,"dose: 200.0 mg/kg/injection, schedule: Q04DX003 (ip), vehicle: saline",87 % of control [survivor count not shown]
NN1CCCC(OC(=O)C(O)(c2ccccc2)c2ccccc2)C1 (configuration not stated),T/C,"dose: 100.0 mg/kg/injection, schedule: Q04DX002 (ip), vehicle: Klucel (hydroxypropylcellulose) (HPC)",102 % of control [survivor count not shown]
same,T/C,"dose: 200.0 mg/kg/injection, schedule: Q04DX002 (ip), vehicle: Klucel (hydroxypropylcellulose) (HPC)",97 % of control [survivor count not shown]
same,T/C,"dose: 400.0 mg/kg/injection, schedule: Q04DX002 (ip), vehicle: Klucel (hydroxypropylcellulose) (HPC)",105 % of control [survivor count not shown]
ClCCCN(CCCl)CCCl,T/C,"dose: 3.1 mg/kg/injection, schedule: Q01DX001 (ip), vehicle: saline",87 % of control [survivor count not shown]
ClCCCC(Cl)CNCCCl (configuration not stated),T/C,"dose: 0.1 mg/kg/injection, schedule: Q01DX Z (ip), vehicle: methylcellulose (MC)",113 % of control [survivor count not shown]
same,T/C,"dose: 0.6 mg/kg/injection, schedule: Q01DX Z (ip), vehicle: methylcellulose (MC)",107 [survivor count not shown] and 113 % of control [survivor count not shown]
same,T/C,"dose: 1.0 mg/kg/injection, schedule: Q01DX009 (ip), vehicle: saline",108 % of control [survivor count not shown]
same,T/C,"dose: 1.0 mg/kg/injection, schedule: Q01DX Z (ip), vehicle: methylcellulose (MC)",111 [survivor count not shown] and 117 % of control [survivor count not shown]
same,T/C,"dose: 1.0 mg/kg/injection, schedule: Q04DX003 (ip), vehicle: saline",100 % of control [survivor count not shown]
same,T/C,"dose: 1.5 mg/kg/injection, schedule: Q01DX Z (ip), vehicle: methylcellulose (MC)","107 [survivor count not shown], 108 [survivor count not shown], 117 % of control [survivor count not shown]"
same,T/C,"dose: 2.0 mg/kg/injection, schedule: Q01DX009 (ip), vehicle: saline",102 % of control [survivor count not shown]
same,T/C,"dose: 2.0 mg/kg/injection, schedule: Q04DX003 (ip), vehicle: saline",104 % of control [survivor count not shown]
same,T/C,"dose: 2.2 mg/kg/injection, schedule: Q01DX Z (ip), vehicle: methylcellulose (MC)","119 [survivor count not shown], 124 [survivor count not shown], 125 % of control [survivor count not shown]"
same,T/C,"dose: 4.0 mg/kg/injection, schedule: Q01DX009 (ip), vehicle: saline",96 % of control [survivor count not shown]
same,T/C,"dose: 4.0 mg/kg/injection, schedule: Q04DX003 (ip), vehicle: saline",115 % of control [survivor count not shown]
same,T/C,"dose: 8.0 mg/kg/injection, schedule: Q01DX009 (ip), vehicle: saline",105 % of control [survivor count not shown]
same,T/C,"dose: 8.0 mg/kg/injection, schedule: Q04DX003 (ip), vehicle: saline",115 % of control [survivor count not shown]
ClCCN(CC#Cc1ccccc1)CCCl,T/C,"dose: 75.0 mg/kg/injection, schedule: Q01DX001 (sc), vehicle: saline",105 % of control [survivor count not shown]
same,T/C,"dose: 150.0 mg/kg/injection, schedule: Q01DX001 (sc), vehicle: saline",113 % of control [survivor count not shown]
same,T/C,"dose: 300.0 mg/kg/injection, schedule: Q01DX001 (sc), vehicle: saline",123 % of control [survivor count not shown]
Cc1cc2nc(CN(CCCl)CCCl)[nH]c2cc1C,T/C,"dose: 3.3 mg/kg/injection, schedule: Q01DX010 (ip), vehicle: carboxymethylcellulose (CMC)",93 % of control [survivor count not shown]
same,T/C,"dose: 7.5 mg/kg/injection, schedule: Q01DX010 (ip), vehicle: carboxymethylcellulose (CMC)",90 % of control [survivor count not shown]
same,T/C,"dose: 15.0 mg/kg/injection, schedule: Q01DX010 (ip), vehicle: carboxymethylcellulose (CMC)",92 % of control [survivor count not shown]
same,T/C,"dose: 30.0 mg/kg/injection, schedule: Q01DX010 (ip), vehicle: carboxymethylcellulose (CMC)",150 % of control [survivor count not shown]
same,T/C,"dose: 176.0 mg/kg/injection, schedule: Q01DX001 (ip), vehicle: carboxymethylcellulose (CMC)",127 % of control [survivor count not shown]
same,T/C,"dose: 264.0 mg/kg/injection, schedule: Q01DX001 (ip), vehicle: carboxymethylcellulose (CMC)",118 % of control [survivor count not shown]
CC(C)N(CCCCOC(=O)C(O)(c1ccccc1)c1ccccc1)C(C)C,T/C,[4],102 % of control [survivor count not shown]
same,T/C,[5],96 % of control [survivor count not shown]
same,T/C,"dose: 75.0 mg/kg/injection, schedule: Q04DX003 (ip), vehicle: saline",97 [survivor count not shown] and 98 % of control [survivor count not shown]

# From PubChem BioAssay AID248 (DTP/NCI, 2004)
